These are yes or no findings as the source states them, for the method shown. Binding seen in cells or lysates may run through a third protein. Some entries that bind do so weakly or less than the wild type. For part of these data: Where a sequence is shown, tags or fusion partners need not be part of it.
B1: SUMO Specific Peptidase 5 (SENP5) (enzyme, UniProt Q96HI0 1-755)
chain: MKKQRKILWRKGIHLAFSEKWNTGFGGFKKFYFHQHLCILKAKLGRPVTWNRQLRHFQGRKKALQIQKTWIKDEPLCAKTKFNVATQNVSTLSSKVKRKDAKHFISSSKTLLRLQAEKLLSSAKNSDHEYCREKNLLKAVTDFPSNSALGQANGHRPRTDPQPSDFPMKFNGESQSPGESGTIVVTLNNHKRKGFCYGCCQGPEHHRNGGPLIPKKFQLNQHRRIKLSPLMMYEKLSMIRFRYRILRSQHFRTKSKVCKLRKAQRSWVQKVTGDHQETRRENGEGGSCSPFPSPEPKDPSCRHQPYFPDMDSSAVVKGTNSHVPDCHTKGSSFLGKELSLDEAFPDQQNGSATNAWDQSSCSSPKWECTELIHDIPLPEHRSNTMFISETEREIMTLGQENQTSSVSDDRVKLSVSGADTSVSSVDGPVSQKAVQNENSYQMEEDGSLKQSILSSELLDHPYCKSPLEAPLVCSGLKLENQVGGGKNSQKASPVDDEQLSVCLSGFLDEVMKKYGSLVPLSEKEVLGRLKDVFNEDFSNRKPFINREITNYRARHQKCNFRIFYNKHMLDMDDLATLDGQNWLNDQVINMYGELIMDAVPDKVHFFNSFFHRQLVTKGYNGVKRWTKKVDLFKKSLLLIPIHLEVHWSLITVTLSNRIISFYDSQGIHFKFCVENIRKYLLTEAREKNRPEFLQGWQTAVTKCIPQQKNDSDCGVFVLQYCKCLALEQPFQFSQEDMPRVRKRIYKELCECRLMD
B2: HA-SENP5 (enzyme, UniProt Q96HI0 1-755)
chain: B1 chain

Protein sequences, listed by entry. Tags and fused reporters are not part of them.
UniProt Q13131: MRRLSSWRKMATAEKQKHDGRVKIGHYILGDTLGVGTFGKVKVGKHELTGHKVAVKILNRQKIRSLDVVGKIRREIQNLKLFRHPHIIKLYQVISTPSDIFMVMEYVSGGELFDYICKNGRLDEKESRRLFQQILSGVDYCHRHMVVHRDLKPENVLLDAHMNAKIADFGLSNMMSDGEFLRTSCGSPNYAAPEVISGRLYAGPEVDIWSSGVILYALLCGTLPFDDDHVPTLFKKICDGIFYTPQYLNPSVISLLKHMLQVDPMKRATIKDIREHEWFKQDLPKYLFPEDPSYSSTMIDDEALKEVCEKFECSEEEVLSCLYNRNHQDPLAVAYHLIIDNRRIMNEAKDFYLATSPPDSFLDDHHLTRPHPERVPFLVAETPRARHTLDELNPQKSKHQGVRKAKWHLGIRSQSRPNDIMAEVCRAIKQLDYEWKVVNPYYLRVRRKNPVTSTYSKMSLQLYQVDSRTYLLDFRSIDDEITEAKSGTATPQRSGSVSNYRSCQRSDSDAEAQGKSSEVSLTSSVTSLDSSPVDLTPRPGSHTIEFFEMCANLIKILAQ
UniProt P54646: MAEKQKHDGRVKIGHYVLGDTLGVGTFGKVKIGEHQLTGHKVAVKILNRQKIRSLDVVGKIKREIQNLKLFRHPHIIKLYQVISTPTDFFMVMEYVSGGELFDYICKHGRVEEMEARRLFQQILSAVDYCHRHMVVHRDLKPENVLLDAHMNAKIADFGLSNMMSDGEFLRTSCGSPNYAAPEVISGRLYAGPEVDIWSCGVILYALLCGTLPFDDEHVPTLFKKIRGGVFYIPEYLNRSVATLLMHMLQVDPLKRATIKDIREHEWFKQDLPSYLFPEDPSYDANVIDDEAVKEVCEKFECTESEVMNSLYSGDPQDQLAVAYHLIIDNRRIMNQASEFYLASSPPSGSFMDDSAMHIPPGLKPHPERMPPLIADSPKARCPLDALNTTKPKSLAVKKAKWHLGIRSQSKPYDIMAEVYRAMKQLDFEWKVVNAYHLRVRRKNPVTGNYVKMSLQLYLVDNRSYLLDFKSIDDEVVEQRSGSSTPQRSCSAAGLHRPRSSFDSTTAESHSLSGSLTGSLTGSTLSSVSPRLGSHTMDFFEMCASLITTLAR

Tests used:
[1] = target: AMP-activated protein kinase catalytic subunit α1 (AMPKα1) (human (endogenous in SMMC-7721 or HepG2)) (UniProt Q13131); assay: co-IP
[2] = target: AMP-activated protein kinase catalytic subunit α2 (AMPKα2) (human (endogenous in SMMC-7721 or HepG2)) (UniProt P54646); assay: co-IP

Binder	binding [1]	binding [2]
B1	binds	binds
B2	–	binds
